Measurements as given in PubChem BioAssay AID248 (DTP/NCI, 2004).
The list is a part of this screen's results and no random one: it gathers tests that were run many times, whatever their T/C, doses with no T/C, and many T/C values between a quarter and a half above the control. Other doses and runs of a compound stand elsewhere. T/C gives the treated animals as a percentage of the vehicle group. Some doses have a count of surviving animals in place of a T/C: the source holds a T/C of zero for them, seemingly a mark for toxic or unscored doses. Some survivor counts are full or nearly so, which does not show that the dose was tolerated: survival well below the control is almost never listed, so the zero probably covers shortened survival too. Counts of survivors are from the toxicity check (mostly the fifth day) where no day follows; animals may have died later. Schedule codes are those of the source, read here as Q, the interval in days (D) or hours (H), X, the number of doses. Signs of the kind (2×) stand for listed records that agree. Some schedules carry Z or #; the key to these is not given. Where survival is the endpoint, the PubChem record calls one and a half times the control and up active, and a quarter to a half above the control has no call in these data; cut-offs in other NCI protocols can differ. Some entries were tested several times; their values stand side by side, smallest first.

Test system: L1210 leukemia ip in BDF1 mice, survival T/C
Test: NCI In Vivo Anticancer Drug Screen. Data for tumor model L1210 Leukemia (intraperitoneal) in B6D2F1 (BDF1) mice
Conditions: T/C endpoint: mean survival time, higher T/C = longer survival
[1] = dose: 50.0 mg/kg/injection, schedule: Q01DX009 (ip), vehicle: saline
[2] = dose: 100.0 mg/kg/injection, schedule: Q04DX003 (ip), vehicle: saline
[3] = dose: 200.0 mg/kg/injection, schedule: Q04DX003 (ip), vehicle: saline
[4] = dose: 400.0 mg/kg/injection, schedule: Q04DX003 (ip), vehicle: saline
[5] = dose: 200.0 mg/kg/injection, schedule: Q04DX002 (ip), vehicle: Klucel (hydroxypropylcellulose) (HPC)
[6] = dose: 15.0 mg/kg/injection, schedule: Q01DX Z (ip), vehicle: saline
[7] = dose: 200.0 mg/kg/injection, schedule: Q01DX009 (ip), vehicle: Klucel (hydroxypropylcellulose) (HPC)
[8] = dose: 400.0 mg/kg/injection, schedule: Q04DX003 (ip), vehicle: saline with Tween-80
[9] = dose: 60.0 mg/kg/injection, schedule: Q01DX Z (ip), vehicle: methylcellulose (MC)

SMILES: CC(=O)OC1CC2c3ccccc3C1c1cccc[n+]12 (stereo not given)
- survivor count (dose: 100.0 mg/kg/injection, schedule: Q04DX003 (ip), vehicle: Klucel (hydroxypropylcellulose) (HPC)): 6 of 6
- survivor count (dose: 115.0 mg/kg/injection, schedule: Q01DX009 (ip), vehicle: Klucel (hydroxypropylcellulose) (HPC)): 3 of 6
- survivor count (dose: 170.0 mg/kg/injection, schedule: Q01DX009 (ip), vehicle: Klucel (hydroxypropylcellulose) (HPC)): 0 of 6
- survivor count (dose: 200.0 mg/kg/injection, schedule: Q01DX001 (ip), vehicle: Klucel (hydroxypropylcellulose) (HPC)): 1 of 6
- survivor count (dose: 400.0 mg/kg/injection, schedule: Q01DX001 (ip), vehicle: Klucel (hydroxypropylcellulose) (HPC)): 1 of 6

SMILES: CNNC(=O)CCc1ccccc1
- survivor count (dose: 75.0 mg/kg/injection, schedule: Q01DX009 (ip), vehicle: saline): 1 of 6
- survivor count (dose: 150.0 mg/kg/injection, schedule: Q01DX009 (ip), vehicle: saline): 0 of 6
- survivor count (dose: 300.0 mg/kg/injection, schedule: Q01DX009 (ip), vehicle: saline): 0 of 6

SMILES: C1=C(c2ccccc2)[P+](c2ccccc2)(c2ccccc2)C=C(c2ccccc2)[P+]1(c1ccccc1)c1ccccc1
- survivor count [1]: 3 of 6
- survivor count [2]: 0 of 6
- survivor count [3]: 0 of 6
- survivor count [4]: 0 of 6

SMILES: CSC(=O)SC
- survivor count (dose: 200.0 mg/kg/injection, schedule: Q01DX009 (ip), vehicle: saline with Tween-80): 0 of 6
- survivor count (dose: 400.0 mg/kg/injection, schedule: Q01DX009 (ip), vehicle: saline with Tween-80): 0 of 6

SMILES: O=C(Nc1ccccc1Cl)Oc1c(Cl)cc(Cl)c2ccccc12
- survivor count (dose: 100.0 mg/kg/injection, schedule: Q01DX009 (ip), vehicle: Klucel (hydroxypropylcellulose) (HPC)): 3 of 6
- survivor count [5]: 3 of 3
- survivor count (dose: 400.0 mg/kg/injection, schedule: Q04DX002 (ip), vehicle: Klucel (hydroxypropylcellulose) (HPC)): 1 of 3

SMILES: COC(=O)N1C=Cc2ccccc2C1C#N (stereo not given)
- survivor count [3]: 6 of 6
- survivor count [4]: 3 of 6

SMILES: OC(CCl)C(O)C(O)C(O)CCl (stereo not given)
- T/C (dose: 100.0 mg/kg/injection, schedule: Q01DX001 (ip), vehicle: saline): 132 % of control

SMILES: CS(=O)(=O)Nc1ccccc1-c1nc2ccccc2c(=O)o1
- survivor count [5]: 3 of 3

SMILES: CCN(CC)CCCC#CCN1CCOCC1
- survivor count [4]: 0 of 6

SMILES: CN=C(NC)c1cccc(NC(=O)c2ccc(C(=O)Nc3cccc(C(=NC)NC)c3)cc2)c1
- survivor count [6]: 1 of 6
- survivor count (dose: 30.0 mg/kg/injection, schedule: Q01DX Z (ip), vehicle: saline): 0 of 6
- survivor count (dose: 60.0 mg/kg/injection, schedule: Q01DX Z (ip), vehicle: saline): 0 of 6
- survivor count (dose: 120.0 mg/kg/injection, schedule: Q01DX Z (ip), vehicle: saline): 0 of 6

SMILES: CN1CCC(CN2c3ccccc3Sc3ccccc32)CC1
- survivor count [1]: 3 of 6
- survivor count (dose: 100.0 mg/kg/injection, schedule: Q01DX009 (ip), vehicle: saline): 4 of 6
- survivor count [2]: 5 of 6
- survivor count (dose: 200.0 mg/kg/injection, schedule: Q01DX009 (ip), vehicle: saline): 1 of 6
- survivor count (dose: 400.0 mg/kg/injection, schedule: Q01DX001 (ip), vehicle: saline): 0 of 6

SMILES: O=C1CCCc2cc3c(cc21)CCCC3
- survivor count (dose: 400.0 mg/kg/injection, schedule: Q01DX009 (ip), vehicle: Klucel (hydroxypropylcellulose) (HPC)): 1 of 6

SMILES: COc1ccc(OC)c(NC(=O)Oc2ccccc2F)c1
- survivor count [7]: 3 of 3

SMILES: Cc1cccc(N=C(N)N=C(N)N)c1
- survivor count [8]: 1 of 6

SMILES: O=C1C=C(Br)C(=O)C1(Br)Br
- survivor count (dose: 150.0 mg/kg/injection, schedule: Q01DX001 (sc), vehicle: olive oil, sesame oil, peanut oil): 1 of 6
- survivor count (dose: 300.0 mg/kg/injection, schedule: Q01DX001 (sc), vehicle: olive oil, sesame oil, peanut oil): 1 of 6

SMILES: CC(C)(O)C(O)C(=O)O (stereo not given)
- survivor count (dose: 400.0 mg/kg/injection, schedule: Q01DX009 (ip), vehicle: saline): 2 of 6

SMILES: O=C(CNC(=O)NCc1ccco1)N/N=C/c1ccc(Cl)c(Cl)c1
- survivor count [7]: 6 of 6 (2×)

SMILES: CCOC(=O)C(C(C)=O)C(c1cccc(O)c1)C(C(C)=O)C(=O)O (stereo not given)
- survivor count (dose: 400.0 mg/kg/injection, schedule: Q04DX002 (ip), vehicle: saline with Tween-80): 3 of 3
- survivor count [8]: 2 of 6

SMILES: CC1CN=C(c2ccc(NC(=O)Nc3ccc(C4=NCC(C)N4)cc3)cc2)N1 (stereo not given)
- survivor count (dose: 4.4 mg/kg/injection, schedule: Q01DX Z (ip), vehicle: saline): 6 of 6
- survivor count (dose: 6.6 mg/kg/injection, schedule: Q01DX Z (ip), vehicle: saline): 2 of 6
- survivor count (dose: 10.0 mg/kg/injection, schedule: Q01DX Z (ip), vehicle: saline): 0 of 6
- survivor count [6]: 0 of 6

SMILES: O=C(Nc1ccc(C(=O)Nc2cccc(C3=NCCN3)c2)cc1)Nc1ccc(C(=O)Nc2cccc(C3=NCCN3)c2)cc1
- T/C (dose: 7.5 mg/kg/injection, schedule: Q01DX Z (ip), vehicle: methylcellulose (MC)): 125 % of control
- T/C (dose: 15.0 mg/kg/injection, schedule: Q01DX Z (ip), vehicle: methylcellulose (MC)): 133 and 140 % of control
- T/C (dose: 30.0 mg/kg/injection, schedule: Q01DX Z (ip), vehicle: methylcellulose (MC)): 131 % of control
- T/C [9]: 143 % of control
- survivor count [9]: 5 of 6
- survivor count (dose: 120.0 mg/kg/injection, schedule: Q01DX Z (ip), vehicle: methylcellulose (MC)): 6 of 6

SMILES: CCCOCC(O)CNCCN (stereo not given)
- T/C (dose: 50.0 mg/kg/injection, schedule: Q01DX009 (ip), vehicle: Klucel (hydroxypropylcellulose) (HPC)): 130 % of control

SMILES: CCCCCCOC(=O)C[n+]1cccc(C(N)=O)c1
- survivor count [3]: 6 of 6
- survivor count [4]: 1 of 6

SMILES: CCN(CC)C(=S)[S][Sb]([c]1ccccc1)[c]1ccccc1
- survivor count (dose: 200.0 mg/kg/injection, schedule: Q01DX001 (ip), vehicle: steroid suspending solution): 1 of 6
- survivor count (dose: 400.0 mg/kg/injection, schedule: Q01DX001 (ip), vehicle: steroid suspending solution): 0 of 6

SMILES: Cc1cc(C)c(CCO)c(C)c1
- survivor count (dose: 12.5 mg/kg/injection, schedule: Q01DX009 (ip), vehicle: DMSO): 6 of 6
- survivor count (dose: 100.0 mg/kg/injection, schedule: Q04DX003 (ip), vehicle: DMSO): 4 of 6
- survivor count (dose: 200.0 mg/kg/injection, schedule: Q04DX003 (ip), vehicle: DMSO): 1 of 6
- survivor count (dose: 400.0 mg/kg/injection, schedule: Q04DX003 (ip), vehicle: DMSO): 1 of 6

SMILES: OCCC(c1ccc(Cl)cc1)N1CCCCC1 (stereo not given)
- survivor count (dose: 200.0 mg/kg/injection, schedule: Q01DX001 (ip), vehicle: other): 2 of 4
- survivor count (dose: 400.0 mg/kg/injection, schedule: Q01DX001 (ip), vehicle: other): 1 of 4

SMILES: Fc1ccc(Cl)c2cccnc12
- survivor count (dose: 300.0 mg/kg/injection, schedule: Q01DX001 (ip), vehicle: saline): 0 of 6

SMILES: CC(CCl)N(CCCl)Cc1cccc(Nc2ncnc3nc[nH]c23)c1 (stereo not given)
- T/C (dose: 10.0 mg/kg/injection, schedule: Q01DX001 (ip), vehicle: saline): 126 and 132 % of control
- T/C (dose: 15.0 mg/kg/injection, schedule: Q01DX001 (ip), vehicle: saline): 135 % of control
- survivor count (dose: 40.0 mg/kg/injection, schedule: Q01DX001 (ip), vehicle: saline): 0 of 4
- survivor count (dose: 50.0 mg/kg/injection, schedule: Q01DX001 (ip), vehicle: carboxymethylcellulose (CMC)): 0 of 4
- survivor count (dose: 80.0 mg/kg/injection, schedule: Q01DX001 (ip), vehicle: saline): 1 of 4
- survivor count (dose: 100.0 mg/kg/injection, schedule: Q01DX001 (ip), vehicle: carboxymethylcellulose (CMC)): 0 of 4
- survivor count (dose: 200.0 mg/kg/injection, schedule: Q01DX001 (ip), vehicle: carboxymethylcellulose (CMC)): 0 of 4
- survivor count (dose: 400.0 mg/kg/injection, schedule: Q01DX001 (ip), vehicle: carboxymethylcellulose (CMC)): 0 of 4
